Test results from publication doi:10.1101/2021.03.31.437821.
No constants are given. Whether binding was seen depends on the method and setting. In cells and extracts the contact can be indirect. Some entries that bind do so weakly or less than the wild type. Where a sequence is shown, tags or fusion partners need not be part of it.

By UniProt entry, the sequences of proteins in these tests, tags left out.
UniProt P49902, whole entry: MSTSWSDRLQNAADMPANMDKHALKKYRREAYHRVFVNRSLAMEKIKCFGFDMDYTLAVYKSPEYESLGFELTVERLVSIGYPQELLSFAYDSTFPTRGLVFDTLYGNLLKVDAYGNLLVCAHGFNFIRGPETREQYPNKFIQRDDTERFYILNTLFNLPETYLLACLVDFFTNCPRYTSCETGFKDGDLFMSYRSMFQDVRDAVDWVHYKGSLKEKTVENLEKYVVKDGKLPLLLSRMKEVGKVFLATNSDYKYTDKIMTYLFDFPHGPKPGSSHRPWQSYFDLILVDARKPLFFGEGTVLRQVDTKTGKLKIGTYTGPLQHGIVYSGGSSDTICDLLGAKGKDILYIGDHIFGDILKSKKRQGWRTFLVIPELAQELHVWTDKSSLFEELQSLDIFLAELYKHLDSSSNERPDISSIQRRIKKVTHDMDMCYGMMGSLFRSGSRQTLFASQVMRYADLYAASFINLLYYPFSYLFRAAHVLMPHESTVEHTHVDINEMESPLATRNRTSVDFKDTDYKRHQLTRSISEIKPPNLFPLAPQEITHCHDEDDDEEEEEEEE

Target: Myc-NT5C2 (5'-nucleotidase, cytosolic II) (human) (UniProt P49902)
Experiment: co-IP

B1: HA-ZNF804A (zinc finger protein 804A) (protein, UniProt Q7Z570 1-1209)
chain: MECYYIVISSTHLSNGHFRNIKGVFRGPLSKNGNKTLDYAEKENTIAKALEDLKANFYCELCDKQYYKHQEFDNHINSYDHAHKQRLKELKQREFARNVASKSRKDERKQEKALQRLHKLAELRKETVCAPGSGPMFKSTTVTVRENCNEISQRVVVDSVNNQQDFKYTLIHSEENTKDATTVAEDPESANNYTAKNNQVGDQAQGIHRHKIGFSFAFPKKASVKLESSAAAFSEYSDDASVGKGFSRKSRFVPSACHLQQSSPTDVLLSSEEKTNSFHPPEAMCRDKETVQTQEIKEVSSEKDALLLPSFCKFQLQLSSDADNCQNSVPLADQIPLESVVINEDIPVSGNSFELLGNKSTVLDMSNDCISVQATTEENVKHNEASTTEVENKNGPETLAPSNTEEVNITIHKKTNFCKRQCEPFVPVLNKHRSTVLQWPSEMLVYTTTKPSISYSCNPLCFDFKSTKVNNNLDKNKPDLKDLCSQQKQEDICMGPLSDYKDVSTEGLTDYEIGSSKNKCSQVTPLLADDILSSSCDSGKNENTGQRYKNISCKIRETEKYNFTKSQIKQDTLDEKYNKIRLKETHEYWFHKSRRKKKRKKLCQHHHMEKTKESETRCKMEAENSYTENAGKYLLEPISEKQYLAAEQLLDSHQLLDKRPKSESISLSDNEEMCKTWNTEYNTYDTISSKNHCKKNTILLNGQSNATMIHSGKHNLTYSRTYCCWKTKMSSCSQDHRSLVLQNDMKHMSQNQAVKRGYNSVMNESERFYRKRRQHSHSYSSDESLNRQNHLPEEFLRPPSTSVAPCKPKKKRRRKRGRFHPGFETLELKENTDYPVKDNSSLNPLDRLISEDKKEKMKPQEVAKIERNSEQTNQLRNKLSFHPNNLLPSETNGETEHLEMETTSGELSDVSNDPTTSVCVASAPTKEAIDNTLLEHKERSENINLNEKQIPFQVPNIERNFRQSQPKSYLCHYELAEALPQGKMNETPTEWLRYNSGILNTQPPLPFKEAHVSGHTFVTAEQILAPLALPEQALLIPLENHDKFKNVPCEVYQHILQPNMLANKVKFTFPPAALPPPSTPLQPLPLQQSLCSTSVTTIHHTVLQQHAAAAAAAAAAAAAGTFKVLQPHQQFLSQIPALTRTSLPQLSVGPVGPRLCPGNQPTFVAPPQMPIIPASVLHPSHLAFPSLPHALFPSLLSPHPTVIPLQPLF
binding: binds
